Measured values: PMC11263360, “The structural basis of the activation and inhibition of DSR2 NADase by phage proteins” (Nature Communications, 2024)
These are yes or no findings as the source states them, for the method shown. Some binding calls cover weakened binding; strength is not graded here.

Target: DSR2 from Bacillus subtilis 29 R, wild type (Bacillus subtilis 29 R) (UniProt P0DXN8)
Assay: SEC; gel filtration profiles of purified DSR2 wild type and mutants; column and buffer of this analysis not stated; both purified

B1: DSR2 from Bacillus subtilis 29 R, wild type (enzyme, UniProt P0DXN8 1-1005, looked up)
chain: MVKVDLESKRYGEKLKEVFLMLDNNVVECIKEITESSRNGKLVFFVGAGVSTLSDYPQWWRLVDKYHEELYGSPKKGNYSSDEYLRIPQIFYNVKGEMAFDGILKDFFQVDKPTNPIHDKILAMNPAHVITTNYDNLIDTACWKRGKYFSVISAEEDVANATSSRYLLKVHGDFRKGFKGENVVLKEDDYLNYDQNYPLISNLMKTIIATHTIVFIGYGLGDYNINMLLNWVRKLQKDSFHKPFFIRTDPSPIENETLIYYENKGLRIIDAASLIDSNEYDYLERYSAVMDLLIESQENKFITKDDEVIDYIYGKISPLFALQYIRKIDLKHVFEYDYHFEVNGTVVRHKNKGFGYMERFFELKESCDERSKLSKKQYERFNALFNFFEKNGVICMAKDAGTLNTSIEINSLAYHGKYDVMKKFIEEQSVSIEDDYKKAFFLACLGRWEESYDLYSNIILNSIDESNGCVYYLSQINRYRIYQSITQAVTQFNGLGLLTFGRHYKPFTDEFLARIEREMTNFNIDDLFNGMPFEFQKKYKILEFLSDNQFLYDDTVKLFELTNKVRSEMSEGSYSFGMSSDIVVLLRLYDNLRFLYENCLWSVSFHEFHQYIRNSMSLLIEKAEYERTRDIDELGFSFFGKKSGFFMEYYDFVNISRHFKIDDIKNLERSCSIDKIRFGEQEKIEEYLVGIAEEITKQFSANGMNVVFYTQFISEAKAALYFAKYVKLSEEGLGKIVKALLFYFPERDLDIGKRYVWLERLTKCNELPKSIISIIDDFLVLQAEKHIDQNYSEVSSNGLYSRDYGALIKHFEKNFISKRLSEITLCLTQDKQKQIDFLFKLLPLLSTNAKSHLLSFKSVENINDLMNGIRIGLIDEFTPEHEELIIEYLETRKVNYIVEKEKGIQTFSSNDYMSTFGIWYFLEEINNSKMEEFIGMDDQYDFFVDPENFDYKKFIPSWLKNYNDKLLGKIAGNKHMKHHVIEVLKERVKNSNDKRYLEILMNYFI
notes: DSR2, Sir2 domain-containing NADase, Bacillus subtilis 29 R, WP_029317421, full length (domains described over residues 1-1005); Cloned into pRSF-32M or pET-32M.3C (both add N-terminal thioredoxin and 6xHis); Crosslinked with BS3 for part of the cryo-EM data; also called WT DSR2; wild-type (WT) DSR2; source: E. coli BL21 (DE3), purified (Ni-NTA, size exclusion); for the DSR2-DSAD1 complex …
  binding: binds
